PubChem BioAssay AID1259308, NCATS – 2017
Here is an unselected part of about 59,000 deposited reagents. About 1,510 of all reagents (2.6%) were called active. 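Calls use total luciferase alone and ignore viability, so some active siRNAs may act by altering cell number.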 The numbers tell different reagents against one gene apart.

- Purpose: 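Candidate targets for better recombinant protein yield in mammalian cells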 (primary screen)
- System: human HEK293 embryonic kidney cells stably expressing firefly luciferase (HEK-CMV-Luc2-Hygro)
- Reagent: single siRNA against human genes, 0.8 pmol siRNA per well
- Time to read-out: 72 h
- Read-out: 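Reporter luminescence and viable-cell signal on separate replicate plates, given as percent of non-targeting control and median/MAD z-scores, plus per-cell luciferase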
- Scale: total luciferase, z-score and total luciferase, % of control: higher = more reporter protein produced; luciferase per cell, z-score: higher = more reporter output per viable cell; viable cells, % of control: higher = more viable cells
- Call rule: 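Active when the median/MAD z-score for overall luciferase is greater than 3; a gene was taken forward for validation with new siRNAs if at least two of its three siRNAs passed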
- Calls: active = raised luciferase; inactive = no rise

target gene	reagent	total luciferase, z-score	total luciferase, % of control	luciferase per cell, z-score	viable cells, % of control	call
SLC30A5 (GeneID 64924)	1	1.13	104	0.872	92.7	inactive
SLC30A5 (GeneID 64924)	2	-0.741	67.1	-1.15	102	inactive
SLC30A5 (GeneID 64924)	3	-0.0994	79.9	-0.179	93.6	inactive
CACNA1C (GeneID 775)	1	-0.522	71.5	0.824	64.3	inactive
CACNA1C (GeneID 775)	2	-1.06	60.8	-1.32	96	inactive
CACNA1C (GeneID 775)	3	-1.28	56.4	-1.62	96.4	inactive
LGALS3BP (GeneID 3959)	1	0.165	85.2	0.252	89.1	inactive
LGALS3BP (GeneID 3959)	2	0.512	92.1	-0.0744	105	inactive
LGALS3BP (GeneID 3959)	3	-0.364	74.7	-0.513	95.5	inactive
TTC22 (GeneID 55001)	1	0.284	87.5	-0.358	107	inactive
TTC22 (GeneID 55001)	2	-0.296	76	-0.813	105	inactive
TTC22 (GeneID 55001)	3	-0.145	79	0.0676	86.7	inactive
ANAPC11 (GeneID 51529)	1	-0.101	79.9	0.0654	87.7	inactive
ANAPC11 (GeneID 51529)	2	-1.88	44.4	-1.57	75	inactive
ANAPC11 (GeneID 51529)	3	-0.245	77	-0.483	97.7	inactive
CLTA (GeneID 1211)	1	-1.28	56.4	-0.17	65.9	inactive
CLTA (GeneID 1211)	2	0.23	86.5	0.0142	96.2	inactive
CLTA (GeneID 1211)	3	-0.293	76.1	-0.761	104	inactive
CD300A (GeneID 11314)	1	0.24	86.7	0.938	75.7	inactive
CD300A (GeneID 11314)	2	2.92	140	0.861	125	inactive
CD300A (GeneID 11314)	3	1.06	103	0.868	91.6	inactive
STKLD1 (GeneID 169436)	1	-0.961	62.8	0.291	65	inactive
STKLD1 (GeneID 169436)	2	0.306	88	0.389	88.7	inactive
STKLD1 (GeneID 169436)	3	-0.49	72.1	-0.886	102	inactive
C2CD2L (GeneID 9854)	1	0.327	88.4	1.12	73.5	inactive
C2CD2L (GeneID 9854)	2	0.792	97.6	1.03	83.2	inactive
C2CD2L (GeneID 9854)	3	0.464	91.1	0.126	98.5	inactive
PRRT2 (GeneID 112476)	1	0.367	89.2	1.32	70.3	inactive
PRRT2 (GeneID 112476)	2	0.782	97.4	1.04	82.8	inactive
PRRT2 (GeneID 112476)	3	1.33	108	0.847	96.8	inactive
TPSG1 (GeneID 25823)	1	-1.95	43.2	-1.41	70	inactive
TPSG1 (GeneID 25823)	2	-1.95	43.2	-0.881	60.8	inactive
TPSG1 (GeneID 25823)	3	0.109	84.1	-0.701	113	inactive
IFI44 (GeneID 10561)	1	1.42	110	0.848	98.5	inactive
IFI44 (GeneID 10561)	2	-0.0344	81.2	0.156	87.1	inactive
IFI44 (GeneID 10561)	3	0.0294	82.5	0.913	72.5	inactive
DRAM2 (GeneID 128338)	1	-0.126	79.4	-0.437	99.5	inactive
DRAM2 (GeneID 128338)	2	0.296	87.8	0.12	95	inactive
DRAM2 (GeneID 128338)	3	0.11	84.1	-0.809	116	inactive

7 consecutive records from above, for reference:
target gene	reagent	total luciferase, z-score	total luciferase, % of control	luciferase per cell, z-score	viable cells, % of control	call
ANAPC11 (GeneID 51529)	2	-1.88	44.4	-1.57	75	inactive
ANAPC11 (GeneID 51529)	3	-0.245	77	-0.483	97.7	inactive
CLTA (GeneID 1211)	1	-1.28	56.4	-0.17	65.9	inactive
CLTA (GeneID 1211)	2	0.23	86.5	0.0142	96.2	inactive
CLTA (GeneID 1211)	3	-0.293	76.1	-0.761	104	inactive
CD300A (GeneID 11314)	1	0.24	86.7	0.938	75.7	inactive
CD300A (GeneID 11314)	2	2.92	140	0.861	125	inactive
